Measurements from the supplement of paper PMC10849652.
This is one part of the list.

Chains of the proteins cited; added tags and fusions are not shown. Lines headed by an entry give the natural chain unless they say otherwise; changes in a name come on top.
UniProt Q15833: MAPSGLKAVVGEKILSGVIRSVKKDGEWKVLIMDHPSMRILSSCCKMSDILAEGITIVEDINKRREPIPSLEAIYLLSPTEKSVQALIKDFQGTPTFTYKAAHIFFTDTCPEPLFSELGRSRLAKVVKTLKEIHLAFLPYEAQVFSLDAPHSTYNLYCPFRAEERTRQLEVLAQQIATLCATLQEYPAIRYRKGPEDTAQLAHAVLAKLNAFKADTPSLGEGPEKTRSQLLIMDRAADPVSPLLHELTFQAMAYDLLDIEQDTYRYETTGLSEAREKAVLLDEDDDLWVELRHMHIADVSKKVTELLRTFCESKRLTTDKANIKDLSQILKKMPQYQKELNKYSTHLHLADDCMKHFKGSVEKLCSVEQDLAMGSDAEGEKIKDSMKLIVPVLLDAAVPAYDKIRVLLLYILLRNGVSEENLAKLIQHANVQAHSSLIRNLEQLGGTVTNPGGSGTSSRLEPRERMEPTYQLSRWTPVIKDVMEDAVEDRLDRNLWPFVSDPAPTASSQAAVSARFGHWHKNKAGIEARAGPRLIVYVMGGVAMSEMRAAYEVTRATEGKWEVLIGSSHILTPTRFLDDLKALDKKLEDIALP
UniProt Q13188: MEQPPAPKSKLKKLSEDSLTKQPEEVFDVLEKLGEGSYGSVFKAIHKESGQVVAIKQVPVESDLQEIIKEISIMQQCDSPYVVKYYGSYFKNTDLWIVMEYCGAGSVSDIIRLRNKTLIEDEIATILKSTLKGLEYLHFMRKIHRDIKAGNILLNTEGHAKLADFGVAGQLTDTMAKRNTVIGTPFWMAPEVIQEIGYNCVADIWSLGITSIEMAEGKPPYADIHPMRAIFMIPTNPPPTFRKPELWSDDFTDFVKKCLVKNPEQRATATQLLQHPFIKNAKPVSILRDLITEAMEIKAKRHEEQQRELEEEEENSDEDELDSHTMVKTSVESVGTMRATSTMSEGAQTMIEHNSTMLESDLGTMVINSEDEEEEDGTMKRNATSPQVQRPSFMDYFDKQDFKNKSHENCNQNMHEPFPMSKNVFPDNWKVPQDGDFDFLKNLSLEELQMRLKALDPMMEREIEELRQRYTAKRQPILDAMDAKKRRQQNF
UniProt Q7Z7C8, whole entry, looked up: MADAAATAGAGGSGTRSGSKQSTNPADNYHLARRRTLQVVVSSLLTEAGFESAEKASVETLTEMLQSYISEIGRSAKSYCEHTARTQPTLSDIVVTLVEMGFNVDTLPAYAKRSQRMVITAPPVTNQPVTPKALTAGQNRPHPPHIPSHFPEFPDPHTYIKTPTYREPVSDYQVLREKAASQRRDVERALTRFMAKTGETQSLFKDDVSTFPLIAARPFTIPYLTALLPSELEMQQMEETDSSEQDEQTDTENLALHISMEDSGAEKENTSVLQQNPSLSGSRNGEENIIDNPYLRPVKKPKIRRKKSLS
UniProt O43815: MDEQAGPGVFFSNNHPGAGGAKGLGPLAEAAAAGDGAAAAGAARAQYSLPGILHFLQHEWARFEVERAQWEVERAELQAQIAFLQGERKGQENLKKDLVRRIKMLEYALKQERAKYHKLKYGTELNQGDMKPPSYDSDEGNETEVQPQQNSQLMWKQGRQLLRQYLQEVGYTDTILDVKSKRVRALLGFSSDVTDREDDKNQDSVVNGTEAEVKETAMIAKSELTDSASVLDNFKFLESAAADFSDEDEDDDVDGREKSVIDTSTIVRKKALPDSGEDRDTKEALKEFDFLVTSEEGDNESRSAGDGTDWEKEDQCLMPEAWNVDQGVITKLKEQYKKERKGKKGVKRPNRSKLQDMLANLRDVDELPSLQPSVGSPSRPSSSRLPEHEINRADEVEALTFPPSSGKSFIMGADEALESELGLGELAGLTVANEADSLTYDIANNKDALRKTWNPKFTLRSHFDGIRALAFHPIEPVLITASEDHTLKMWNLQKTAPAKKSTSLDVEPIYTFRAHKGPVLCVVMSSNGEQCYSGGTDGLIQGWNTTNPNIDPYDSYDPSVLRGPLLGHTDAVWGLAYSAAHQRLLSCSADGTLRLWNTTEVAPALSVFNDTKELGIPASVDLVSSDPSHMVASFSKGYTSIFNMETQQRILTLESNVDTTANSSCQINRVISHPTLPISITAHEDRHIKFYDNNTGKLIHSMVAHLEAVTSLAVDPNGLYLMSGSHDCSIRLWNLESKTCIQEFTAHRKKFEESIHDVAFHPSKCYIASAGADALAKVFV
UniProt Q7RTN6: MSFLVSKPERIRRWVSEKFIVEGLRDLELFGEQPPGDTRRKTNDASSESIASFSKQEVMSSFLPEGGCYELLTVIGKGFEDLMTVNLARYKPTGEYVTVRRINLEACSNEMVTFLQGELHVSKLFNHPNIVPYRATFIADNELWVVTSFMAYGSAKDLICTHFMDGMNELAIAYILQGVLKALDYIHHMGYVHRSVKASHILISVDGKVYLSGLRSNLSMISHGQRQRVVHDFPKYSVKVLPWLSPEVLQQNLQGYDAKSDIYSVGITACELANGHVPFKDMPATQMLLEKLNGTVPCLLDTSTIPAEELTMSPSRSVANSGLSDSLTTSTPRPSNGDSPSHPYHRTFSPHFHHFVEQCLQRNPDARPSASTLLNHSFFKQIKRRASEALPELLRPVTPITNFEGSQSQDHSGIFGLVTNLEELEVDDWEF
UniProt Q9ULQ0: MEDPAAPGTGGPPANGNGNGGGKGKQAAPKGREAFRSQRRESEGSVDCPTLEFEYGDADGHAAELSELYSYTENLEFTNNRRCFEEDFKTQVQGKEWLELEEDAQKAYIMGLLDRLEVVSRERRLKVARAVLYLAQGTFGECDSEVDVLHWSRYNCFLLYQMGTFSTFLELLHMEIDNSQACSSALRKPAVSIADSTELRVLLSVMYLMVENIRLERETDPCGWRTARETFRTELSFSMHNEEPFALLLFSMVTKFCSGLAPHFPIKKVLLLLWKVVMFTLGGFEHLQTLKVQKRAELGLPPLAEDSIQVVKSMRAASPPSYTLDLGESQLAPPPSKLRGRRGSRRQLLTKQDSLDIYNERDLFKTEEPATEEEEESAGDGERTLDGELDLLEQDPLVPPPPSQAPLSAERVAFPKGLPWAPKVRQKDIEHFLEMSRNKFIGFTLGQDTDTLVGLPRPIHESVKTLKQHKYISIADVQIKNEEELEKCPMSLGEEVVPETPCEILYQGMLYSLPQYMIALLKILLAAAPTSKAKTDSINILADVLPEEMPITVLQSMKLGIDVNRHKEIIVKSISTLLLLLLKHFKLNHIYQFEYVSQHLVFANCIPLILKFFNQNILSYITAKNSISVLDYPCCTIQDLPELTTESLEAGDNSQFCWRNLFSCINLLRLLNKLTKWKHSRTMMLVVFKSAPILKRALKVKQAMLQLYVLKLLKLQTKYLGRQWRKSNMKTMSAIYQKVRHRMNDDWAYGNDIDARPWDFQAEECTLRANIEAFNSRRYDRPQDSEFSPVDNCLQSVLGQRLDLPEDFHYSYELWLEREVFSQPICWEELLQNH
UniProt Q13395: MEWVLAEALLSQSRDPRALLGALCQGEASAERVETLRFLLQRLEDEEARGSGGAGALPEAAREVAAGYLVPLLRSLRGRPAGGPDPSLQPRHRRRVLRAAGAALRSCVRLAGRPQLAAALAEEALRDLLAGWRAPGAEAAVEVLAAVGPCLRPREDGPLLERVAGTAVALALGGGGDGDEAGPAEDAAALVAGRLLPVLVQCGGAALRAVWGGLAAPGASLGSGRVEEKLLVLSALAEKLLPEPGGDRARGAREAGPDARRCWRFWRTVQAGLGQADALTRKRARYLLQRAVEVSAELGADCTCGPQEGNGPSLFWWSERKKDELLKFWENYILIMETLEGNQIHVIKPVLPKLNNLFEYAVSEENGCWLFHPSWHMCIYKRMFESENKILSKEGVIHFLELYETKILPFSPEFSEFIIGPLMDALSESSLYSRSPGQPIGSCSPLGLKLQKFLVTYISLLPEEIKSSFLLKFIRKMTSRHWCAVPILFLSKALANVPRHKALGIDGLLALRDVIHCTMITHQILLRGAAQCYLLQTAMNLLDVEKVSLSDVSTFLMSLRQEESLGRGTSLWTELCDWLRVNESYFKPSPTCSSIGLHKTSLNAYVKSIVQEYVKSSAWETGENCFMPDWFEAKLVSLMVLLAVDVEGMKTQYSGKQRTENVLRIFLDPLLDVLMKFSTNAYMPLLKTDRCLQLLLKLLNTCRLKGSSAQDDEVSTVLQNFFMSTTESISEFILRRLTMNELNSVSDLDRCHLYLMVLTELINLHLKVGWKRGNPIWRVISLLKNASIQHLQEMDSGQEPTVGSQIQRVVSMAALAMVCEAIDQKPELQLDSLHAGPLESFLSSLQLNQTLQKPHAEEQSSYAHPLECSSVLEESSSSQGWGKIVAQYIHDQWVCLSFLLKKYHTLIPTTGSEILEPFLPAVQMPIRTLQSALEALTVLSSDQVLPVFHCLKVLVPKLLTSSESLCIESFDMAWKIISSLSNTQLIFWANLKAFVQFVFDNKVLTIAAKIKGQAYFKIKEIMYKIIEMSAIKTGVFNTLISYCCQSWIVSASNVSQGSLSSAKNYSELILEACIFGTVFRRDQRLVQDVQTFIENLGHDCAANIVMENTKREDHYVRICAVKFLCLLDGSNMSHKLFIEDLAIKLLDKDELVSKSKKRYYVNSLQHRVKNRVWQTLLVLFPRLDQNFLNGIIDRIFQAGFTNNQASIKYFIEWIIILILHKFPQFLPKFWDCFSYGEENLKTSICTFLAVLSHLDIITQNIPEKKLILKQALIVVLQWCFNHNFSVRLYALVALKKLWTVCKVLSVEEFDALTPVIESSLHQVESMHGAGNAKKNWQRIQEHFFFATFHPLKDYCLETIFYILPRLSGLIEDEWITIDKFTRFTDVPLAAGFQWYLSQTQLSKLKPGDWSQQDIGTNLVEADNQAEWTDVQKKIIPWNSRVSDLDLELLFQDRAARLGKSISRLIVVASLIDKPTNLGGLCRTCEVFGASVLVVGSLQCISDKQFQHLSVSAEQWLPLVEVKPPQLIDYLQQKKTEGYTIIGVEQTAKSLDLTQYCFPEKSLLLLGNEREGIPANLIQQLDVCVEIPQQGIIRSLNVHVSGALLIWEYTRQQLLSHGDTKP
UniProt Q9H2K8: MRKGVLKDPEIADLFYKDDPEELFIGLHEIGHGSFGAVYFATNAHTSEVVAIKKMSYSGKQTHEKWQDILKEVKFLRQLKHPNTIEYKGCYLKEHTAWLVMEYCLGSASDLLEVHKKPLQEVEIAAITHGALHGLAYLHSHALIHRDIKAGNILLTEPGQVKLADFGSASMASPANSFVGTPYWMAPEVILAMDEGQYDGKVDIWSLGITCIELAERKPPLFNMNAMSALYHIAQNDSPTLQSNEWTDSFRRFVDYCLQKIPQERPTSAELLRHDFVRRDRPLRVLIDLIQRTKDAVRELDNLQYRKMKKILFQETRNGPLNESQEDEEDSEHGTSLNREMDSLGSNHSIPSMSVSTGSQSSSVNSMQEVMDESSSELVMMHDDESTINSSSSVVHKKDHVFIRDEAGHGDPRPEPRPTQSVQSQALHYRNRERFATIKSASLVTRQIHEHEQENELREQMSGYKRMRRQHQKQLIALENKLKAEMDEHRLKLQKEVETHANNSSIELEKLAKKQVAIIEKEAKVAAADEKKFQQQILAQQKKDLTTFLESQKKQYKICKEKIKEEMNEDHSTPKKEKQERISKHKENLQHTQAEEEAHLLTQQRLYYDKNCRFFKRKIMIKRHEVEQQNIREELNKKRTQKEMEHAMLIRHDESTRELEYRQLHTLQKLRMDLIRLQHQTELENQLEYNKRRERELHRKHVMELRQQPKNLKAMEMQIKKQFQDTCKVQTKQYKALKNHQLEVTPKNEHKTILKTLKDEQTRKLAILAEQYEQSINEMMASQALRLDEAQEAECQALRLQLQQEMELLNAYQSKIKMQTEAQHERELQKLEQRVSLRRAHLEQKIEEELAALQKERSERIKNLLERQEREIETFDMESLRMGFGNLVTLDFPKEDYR
UniProt Q9UH65: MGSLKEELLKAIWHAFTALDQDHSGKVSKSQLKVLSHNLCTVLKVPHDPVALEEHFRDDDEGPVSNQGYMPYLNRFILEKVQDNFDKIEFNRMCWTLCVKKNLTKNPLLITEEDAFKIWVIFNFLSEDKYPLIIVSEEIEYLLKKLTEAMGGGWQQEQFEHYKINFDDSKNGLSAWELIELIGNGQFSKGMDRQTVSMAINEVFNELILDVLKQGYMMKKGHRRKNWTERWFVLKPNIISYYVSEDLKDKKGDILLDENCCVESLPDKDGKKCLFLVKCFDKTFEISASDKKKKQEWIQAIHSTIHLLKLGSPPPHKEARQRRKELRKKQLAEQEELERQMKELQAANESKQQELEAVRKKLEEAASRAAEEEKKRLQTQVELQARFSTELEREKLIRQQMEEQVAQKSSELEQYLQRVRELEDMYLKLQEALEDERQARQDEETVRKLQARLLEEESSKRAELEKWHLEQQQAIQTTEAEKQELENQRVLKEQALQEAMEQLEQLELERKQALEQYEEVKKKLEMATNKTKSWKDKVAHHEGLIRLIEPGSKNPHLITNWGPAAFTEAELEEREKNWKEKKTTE

What was measured:
Assay in all cases: log2 fold change, soluble protein after heating vs DMSO (PISA); higher = thermal stabilisation; K562 cells, 10 uM, 30 min; active = over 0.2 and 3.5 SD of the protein, either way, in both replicates (recomputed)
[1] = compound: Cc1ccc(NC(=O)c2ccc(CN3CC[C@H](N(C)C)C3)c(C(F)(F)F)c2)cc1Nc1nccc(-c2cncnc2)n1 [bafetinib]
In short: (§1)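 Soluble protein was defined as the supernatant after 21,000xg for 90 min. It came from K562 cells at 2×10^6 cells/mL given 10 μM compound for 30 min, heated in aliquots for 3 min across 48°C-58°C, pooled, and extracted in PBS with 0.5% NP-40 at 4°C, and was quantified by TMTpro 16plex LC-MS/MS with equalised channel sums. Thermal stability against control samples, from duplicates, is reported as log2 fold change.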

[2] = compound: Cc1cccc(CC(=O)N2CCc3c2ccc(-c2cn(C)c4ncnc(N)c24)c3F)n1
In short: as §1

[3] = compound: Cc1cn(-c2cc(NC(=O)c3ccc(C)c(Nc4nccc(-c5cccnc5)n4)c3)cc(C(F)(F)F)c2)cn1 [nilotinib]
In short: as §1

[4] = compound: Cc1nc(Nc2n[nH]c3c2CN(C(=O)N[C@H](CN(C)C)c2ccccc2)C3(C)C)c2sccc2n1
In short: as §1

[5] = compound: Cc1nc(Nc2ncc(C(=O)Nc3c(C)cccc3Cl)s2)cc(N2CCN(CCO)CC2)n1 [dasatinib]
In short: as §1

[6] = compound: Cc1ncc(-c2ccnc(Nc3ccc(S(C)(=O)=O)cc3)n2)n1C(C)C
In short: as §1

[7] = compound: Cn1cc(-c2ccc3c(c2)CCN3C(=O)Cc2cccc(C(F)(F)F)c2)c2c(N)ncnc21
In short: as §1

[8] = compound: Cn1cc(-c2ccc3nnc(C(F)(F)c4ccc5ncccc5c4)n3n2)cn1
In short: as §1

[9] = compound: Cn1cncc1[C@@](N)(c1ccc(Cl)cc1)c1ccc2c(c1)c(-c1cccc(Cl)c1)cc(=O)n2C [tipifarnib]
In short: as §1

[10] = compound: FC(F)(F)c1ccc(/C=C/c2nc(COc3ccc(CCCCn4ccnn4)cc3)co2)cc1 [mubritinib]
In short: as §1

Measured: log2 fold change

TANK (UniProt Q92844)
active: [4] 0.337
inactive: [1] -0.049 | [2] -0.106 | [3] 0.054 | [5] -0.025 | [6] 0.082 | [7] -0.021 | [8] -0.036 | [9] -0.016 | [10] 0.03

SYNJ1 (UniProt O43426)
inactive: [1] -0.017 | [2] 0.046 | [3] 0.001 | [4] -0.011 | [5] 0.037 | [6] 0.01 | [7] 0.044 | [8] 0.007 | [9] 0.01 | [10] 0.082

STX3 (UniProt Q13277)
inactive: [1] 0.008 | [2] -0.012 | [3] 0.038 | [4] -0.02 | [5] 0.012 | [6] 0.043 | [7] 0.004 | [8] 0.051 | [9] -0.053 | [10] -0.023

TAF5L (UniProt O75529)
inactive: [1] -0.199

SUB1 (UniProt P53999)
inactive: [1] -0.043 | [2] -0.046 | [3] 0.016 | [4] -0.012 | [5] 0.033 | [6] -0.006 | [7] 0 | [8] 0.009 | [9] 0.024 | [10] -0.01

SURF2 (UniProt Q15527)
inactive: [1] -0.103 | [2] 0.039 | [3] 0.054 | [4] -0.048 | [5] -0.02 | [6] 0.082 | [7] -0.012 | [8] 0.053 | [9] 0.034 | [10] -0.013

SUOX (UniProt P51687)
inactive: [1] -0.084 | [2] -0.181 | [3] 0.063 | [4] 0.013 | [5] 0 | [6] -0.066 | [7] -0.015 | [8] 0.063 | [9] 0.019 | [10] 0.032

TACC2 (UniProt O95359)
inactive: [1] -0.044 | [2] 0.011 | [3] 0.027 | [4] 0.073 | [5] 0.059 | [6] 0.008 | [7] -0.001 | [8] -0.003 | [9] 0.029 | [10] -0.006

STT3A (UniProt P46977)
inactive: [1] -0.036 | [2] 0.024 | [3] -0.046 | [4] 0.049 | [5] 0.015 | [6] -0.035 | [7] -0.074 | [8] 0.027 | [9] 0.022 | [10] -0.021

SYNE2 isoform 2 (UniProt Q8WXH0)
inactive: [1] -0.008 | [2] 0.031 | [3] -0.115 | [4] 0.006 | [5] -0.019 | [6] -0.069 | [7] 0.153 | [8] 0.027 | [9] -0.029 | [10] 0.233

STRAP isoform 2 (UniProt Q9Y3F4)
inactive: [1] -0.003 | [2] -0.038 | [3] -0.004 | [4] 0.039 | [5] 0.044 | [6] 0.008 | [7] -0.023 | [8] -0.007 | [9] -0.053 | [10] 0.005

TACC3 (UniProt Q9Y6A5)
inactive: [1] -0.049 | [2] -0.009 | [3] 0.019 | [4] -0.01 | [5] 0.032 | [6] 0.015 | [7] 0.008 | [8] -0.008 | [9] -0.029 | [10] 0.03

STK39 (UniProt Q9UEW8)
inactive: [1] -0.09 | [2] 0 | [3] -0.076 | [4] -0.028 | [5] -0.108 | [6] -0.016 | [7] -0.008 | [8] -0.032 | [9] -0.031 | [10] -0.083

STXBP2 isoform 3 (UniProt Q15833)
inactive: [1] 0.088 | [2] 0.096 | [3] -0.099 | [4] -0.147 | [5] -0.131 | [6] -0.014 | [7] 0.073 | [8] 0.086 | [9] -0.086 | [10] 0.164

STK3 isoform 2 (UniProt Q13188)
inactive: [1] -0.053 | [2] 0.02 | [3] 0.016 | [4] 0.083 | [5] -0.044 | [6] -0.021 | [7] -0.012 | [8] 0.008 | [9] 0.008 | [10] -0.008

TAF8 isoform 2 (UniProt Q7Z7C8)
inactive: [1] -0.064 | [2] 0.117 | [3] -0.029 | [4] -0.009 | [5] 0.039 | [6] -0.08 | [7] 0.041 | [8] 0.001 | [9] -0.001 | [10] 0.089

STXBP3 (UniProt O00186)
inactive: [1] 0.018 | [2] 0.096 | [3] -0.107 | [4] -0.192 | [5] -0.155 | [6] 0.008 | [7] 0.044 | [8] -0.029 | [9] -0.106 | [10] 0.028

STRN (UniProt O43815)
inactive: [1] -0.016 | [2] 0.063 | [3] 0.014 | [4] 0.048 | [5] -0.068 | [6] -0.008 | [7] 0.022 | [8] -0.064 | [9] 0 | [10] 0.021

STOML2 (UniProt Q9UJZ1)
inactive: [1] 0.004 | [2] -0.089 | [3] -0.003 | [4] 0.016 | [5] 0.046 | [6] -0.009 | [7] 0.04 | [8] -0.005 | [9] 0.049 | [10] -0.009

STRADA (UniProt Q7RTN6)
inactive: [1] -0.039 | [2] -0.034 | [3] 0.044 | [4] -0.064 | [5] 0.034 | [6] 0.001 | [7] 0.034 | [8] 0.019 | [9] 0.035 | [10] 0.036

STRIP2 (UniProt Q9ULQ0)
inactive: [1] 0.011 | [2] -0.1 | [3] -0.032 | [4] 0.084 | [5] -0.106 | [6] 0.035 | [7] 0.028 | [8] -0.03 | [9] -0.031 | [10] -0.057

SUCLG2 (UniProt Q96I99)
inactive: [1] -0.068 | [2] 0.019 | [3] -0.092 | [4] -0.01 | [5] -0.049 | [6] -0.023 | [7] 0.046 | [8] 0.065 | [9] -0.014 | [10] -0.058

STRIP1 (UniProt Q5VSL9)
inactive: [1] 0.117 | [2] -0.02 | [3] -0.026 | [4] -0.052 | [5] -0.091 | [6] 0.009 | [7] -0.014 | [8] -0.016 | [9] -0.095 | [10] -0.002

SYAP1 (UniProt Q96A49)
inactive: [1] -0.027 | [2] 0.019 | [3] -0.006 | [4] -0.035 | [5] -0.022 | [6] 0.017 | [7] -0.013 | [8] 0.002 | [9] -0.035 | [10] 0.037

STRN4 isoform 3 (UniProt Q9NRL3)
inactive: [1] -0.009 | [2] -0.179 | [3] -0.009 | [4] 0.114 | [5] 0.058 | [6] -0.016 | [7] -0.004 | [8] -0.096 | [9] -0.007 | [10] 0.02

TARBP1 (UniProt Q13395)
inactive: [1] -0.022 | [2] 0.005 | [3] 0.019 | [4] 0.081 | [5] -0.058 | [6] -0.026 | [7] 0.116 | [8] -0.013 | [9] 0.036 | [10] -0.055

Quoted at random: two entries already listed, in no set order.
STRIP1 (UniProt Q5VSL9)
inactive: [1] 0.117 | [2] -0.02 | [3] -0.026 | [4] -0.052 | [5] -0.091 | [6] 0.009 | [7] -0.014 | [8] -0.016 | [9] -0.095 | [10] -0.002

SUCLG2 (UniProt Q96I99)
inactive: [1] -0.068 | [2] 0.019 | [3] -0.092 | [4] -0.01 | [5] -0.049 | [6] -0.023 | [7] 0.046 | [8] 0.065 | [9] -0.014 | [10] -0.058

(list continues)

TAOK3 (UniProt Q9H2K8)
inactive: [1] -0.066 | [2] 0.012 | [3] -0.05 | [4] 0.03 | [5] -0.048 | [6] -0.048 | [7] 0.025 | [8] -0.009 | [9] -0.026 | [10] 0.018

STX17 (UniProt P56962)
inactive: [1] -0.049 | [2] -0.028 | [3] 0.028 | [4] -0.057 | [5] -0.027 | [6] -0.051 | [7] 0.071 | [8] 0.002 | [9] -0.012 | [10] 0.074

STX4 (UniProt Q12846)
inactive: [1] -0.074 | [2] -0.031 | [3] -0.014 | [4] -0.082 | [5] -0.086 | [6] 0.085 | [7] 0.073 | [8] 0.018 | [9] -0.007 | [10] 0.04

SUPT6H (UniProt Q7KZ85)
inactive: [1] 0.055 | [2] 0.064 | [3] -0.103 | [4] 0.064 | [5] -0.385 | [6] 0.077 | [7] -0.021 | [8] -0.111 | [9] -0.026 | [10] 0.156

SWAP70 (UniProt Q9UH65)
inactive: [1] -0.013 | [2] 0.065 | [3] 0.012 | [4] -0.082 | [5] 0.016 | [6] 0.017 | [7] 0.022 | [8] -0.023 | [9] 0.029 | [10] 0.02
